No constants are given. Whether binding was seen depends on the method and setting. In cells and extracts the contact can be indirect. Some results given as binding are weak or reduced against the parent protein; the word gives no strength.

This assay concerns the target T1, Bcl-xL (rat (endogenous in spinal cord)), P53563.
T1 chain: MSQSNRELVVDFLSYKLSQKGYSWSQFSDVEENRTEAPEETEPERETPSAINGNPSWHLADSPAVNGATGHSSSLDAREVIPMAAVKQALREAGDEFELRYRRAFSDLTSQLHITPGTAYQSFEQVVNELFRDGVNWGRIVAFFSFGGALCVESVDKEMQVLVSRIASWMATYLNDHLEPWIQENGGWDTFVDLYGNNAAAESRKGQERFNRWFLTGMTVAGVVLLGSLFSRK
The assay is described as follows: co-IP; about 100 ug of mitochondrial fraction of rat spinal cord (lumbar vertebra), precleared with protein A+G sepharose; IP with 2 ug polyclonal rabbit anti-Bcl-xL antibody and protein A+G sepharose for 5 h at 4°C; Western blot with anti-Bad; rats exposed to 0, 100, 200 and 400 mg/kg 2,5-HD for 5 weeks. To be noted: remark: other sources report otherwise. In general terms: A western blot detects proteins with antibodies after separation by electrophoresis.

B1: Bcl-2-associated death promoter (Bad), O35147 1-205 (protein)
chain: MGTPKQPSLAPAHALGLRKSDPGIRSLGSDAGGRRWRPAAQSMFQIPEFEPSEQEDASTTDRGLGPSLTEDQPGPYLAPGLLGSIVQQQPGQAANNSHHGGAGTMETRSRHSSYPAGTEEDEGMEEELSPFRGRSRSAPPNLWAAQRYGRELRRMSDEFEGSFKGLPRPKSAGTATQMRQSASWTRIIQSWWDRNLGKGGSTPSQ
As for B1, the binding entry is given as “binds”.

Source of the values: article PMC5487034.
